Data from patent US20260256792A1, “TREATMENT OF CHRONIC SPONTANEOUS URTICARIA BY ADMINISTERING (R)-2-[3-[4-AMINO-3-(2-FLUORO-4-PHENOXY-PHENYL)PYRAZOLO[3,4-D]PYRIMIDIN-1-YL]PIPERIDINE-1-CARBONYL]-4-METHYL-4-[4-(OXETAN-3-YL)PIPERAZIN-1-YL]PENT-2-ENENITRILE” (priority 2023, published 2026).
The source gives many values for each of these; only a part stands here.

Tested on: moderate-to-severe chronic spontaneous urticaria (CSU)
Assay: Phase 2 CSU study: urticaria activity score over 7 days (UAS7)
Format: in vivo, human
Parameters: key to UAS7 Change from baseline LS Mean (SE): UAS7 points; daily UAS score ranges 0–6 points/day, over 7 days
Excerpt: The study comprises a 12 week, randomized, double-blind, placebo-controlled, multi-center, dose-ranging efficacy and safety phase, followed by a 40 week open label extension (OLE) phase (see FIG. 1). The study consists of three phases and an optional OLE phase. […] Clinically, CSU is characterized by the spontaneous and recurrent appearance of pruritic hives. The proposed primary endpoints were the UAS7 at Week 12 in EU and EU reference countries and the ISS7 in the US. Regardless of where a participant was from, all assessments were the same. The UAS7 score is a composite score containing both the HSS7 and the ISS7. This allowed a global assessment of the two key components of urticaria: hives and itch. […] The UAS is a validated PRO measure. […] The daily UAS scores range from 0 to 6 point/day. […] Patients were to complete the UAS using the e-diary. […] The following secondary endpoints were to be analyzed using the same approach as for the primary endpoint: • Change from baseline in UAS7 at Week 4 • Change from baseline in UAS7 at Week 12 (for US and US reference countries) • Change from baseline in ISS7 at Week 12 (except US and US reference countries) • Change from baseline in HSS7 at Week 12 The following responder secondary endpoints were to be analyzed using the Cochran-Mantel-Haenszel test adjusted by region: • Proportion of participants with UAS7<6 at Week 12 • Proportion of participants with UAS7=0 at Week 12 Participants who received selected prohibited medications and/or rescue medications were to be considered as non-responders for time points after the medication usage. For other participants, all available data including those collected during the off-treatment period were to be used to determine the responder/non-responder status. Missing data were to be considered as non-responders.

[1] = Omalizumab-Naïve Population with Outlier Removed, 400 mg QPM, Week 8
[2] = Omalizumab-Naïve Population with Outlier Removed, 400 mg QPM, Week 9
[3] = Omalizumab-Naïve Population with Outlier Removed, 400 mg QPM, Week 10
[4] = Omalizumab-Naïve Population with Outlier Removed, 400 mg QPM, Week 11
[5] = Omalizumab-Naïve Population with Outlier Removed, 400 mg QPM, Week 12
[6] = Omalizumab-Naïve Population with Outlier Removed, 400 mg TID, Week 1
[7] = Omalizumab-Naïve Population with Outlier Removed, 400 mg TID, Week 2
[8] = Omalizumab-Naïve Population with Outlier Removed, 400 mg TID, Week 3
[9] = Omalizumab-Naïve Population with Outlier Removed, 400 mg TID, Week 4
[10] = Omalizumab-Naïve Population with Outlier Removed, 400 mg TID, Week 5
[11] = Omalizumab-Naïve Population with Outlier Removed, 400 mg TID, Week 6
[12] = Omalizumab-Naïve Population with Outlier Removed, 400 mg TID, Week 7
[13] = Omalizumab-Naïve Population with Outlier Removed, 400 mg TID, Week 8
[14] = Omalizumab-Naïve Population with Outlier Removed, 400 mg TID, Week 9
[15] = Omalizumab-Naïve Population with Outlier Removed, 400 mg TID, Week 10
[16] = Omalizumab-Naïve Population with Outlier Removed, 400 mg TID, Week 11
[17] = Omalizumab-Naïve Population with Outlier Removed, 400 mg TID, Week 12
[18] = Omalizumab-Naïve Population, 400 mg BID, Week 5
[19] = Omalizumab-Naïve Population, 400 mg BID, Week 6
[20] = Omalizumab-Naïve Population, 400 mg BID, Week 7

CC(C)(C=C(C#N)C(=O)N1CCC[C@@H](n2nc(-c3ccc(Oc4ccccc4)cc3F)c3c(N)ncnc32)C1)N1CCN(C2COC2)CC1 [rilzabrutinib, (R)-2-[3-[4-amino-3-(2-fluoro-4-phenoxy-phenyl)pyrazolo[3,4-d]pyrimidin-1-yl]piperidine-1-carbonyl]-4-methyl-4-[4-(oxetan-3-yl)piperazin-1-yl]pent-2-enenitrile]
UAS7 % Change from baseline LS Mean (SE) [1]: −35.12 (6.14) % | UAS7 Change difference for rilzabrutinib vs. placebo LS Mean (95% CI) [1]: −0.58 (−5.54, 4.37) | UAS7 Change from baseline LS Mean (SE) [1]: −10.60 (1.81) | UAS7 % Change difference for rilzabrutinib vs. placebo LS Mean (95% CI) [2]: −9.02 % | UAS7 % Change from baseline LS Mean (SE) [2]: −35.85 (6.16) % | UAS7 Change difference for rilzabrutinib vs. placebo LS Mean (95% CI) [2]: −2.25 (−7.32, 2.82) | UAS7 % Change difference for rilzabrutinib vs. placebo LS Mean (95% CI) [3]: −6.86 % | UAS7 % Change from baseline LS Mean (SE) [3]: −37.24 (6.37) % | UAS7 Change difference for rilzabrutinib vs. placebo LS Mean (95% CI) [3]: −1.84 (−7.00, 3.33) | UAS7 % Change difference for rilzabrutinib vs. placebo LS Mean (95% CI) [4]: −7.69 % | UAS7 % Change from baseline LS Mean (SE) [4]: −36.00 (6.57) % | UAS7 Change from baseline LS Mean (SE) [4]: −10.76 (1.90) | UAS7 % Change difference for rilzabrutinib vs. placebo LS Mean (95% CI) [5]: −3.75 % | UAS7 % Change from baseline LS Mean (SE) [5]: −34.40 (6.66) % | UAS7 Change difference for rilzabrutinib vs. placebo LS Mean (95% CI) [5]: 0.08 (−5.29, 5.46) | UAS7 Change from baseline LS Mean (SE) [5]: −9.93 (1.96) | UAS7 % Change difference for rilzabrutinib vs. placebo LS Mean (95% CI) [6]: −27.32 % | UAS7 % Change from baseline LS Mean (SE) [6]: −36.85 (5.65) % | UAS7 Change difference for rilzabrutinib vs. placebo LS Mean (95% CI) [6]: −7.98 (−13.13, −2.83) | UAS7 Change from baseline LS Mean (SE) [6]: −11.59 (1.59) | UAS7 % Change difference for rilzabrutinib vs. placebo LS Mean (95% CI) [7]: −27.17 % | UAS7 % Change from baseline LS Mean (SE) [7]: −44.94 (5.49) % | UAS7 Change difference for rilzabrutinib vs. placebo LS Mean (95% CI) [7]: −7.96 (−12.18, −3.73) | UAS7 Change from baseline LS Mean (SE) [7]: −13.89 (1.58) | UAS7 % Change difference for rilzabrutinib vs. placebo LS Mean (95% CI) [8]: −27.10 % | UAS7 % Change from baseline LS Mean (SE) [8]: −47.26 (5.69) % | UAS7 Change difference for rilzabrutinib vs. placebo LS Mean (95% CI) [8]: −7.70 (−12.10, −3.31) | UAS7 Change from baseline LS Mean (SE) [8]: −14.55 (1.64) | UAS7 % Change difference for rilzabrutinib vs. placebo LS Mean (95% CI) [9]: −26.13 % | UAS7 % Change from baseline LS Mean (SE) [9]: −46.87 (5.93) % | UAS7 Change difference for rilzabrutinib vs. placebo LS Mean (95% CI) [9]: −7.25 (−11.83, −2.67) | UAS7 Change from baseline LS Mean (SE) [9]: −14.31 (1.71) | UAS7 % Change difference for rilzabrutinib vs. placebo LS Mean (95% CI) [10]: −19.26 % | UAS7 % Change from baseline LS Mean (SE) [10]: −51.99 (5.73) % | UAS7 Change difference for rilzabrutinib vs. placebo LS Mean (95% CI) [10]: −5.61 (−10.23, −0.99) | UAS7 Change from baseline LS Mean (SE) [10]: −16.07 (1.72) | UAS7 % Change difference for rilzabrutinib vs. placebo LS Mean (95% CI) [11]: −23.48 % | UAS7 % Change from baseline LS Mean (SE) [11]: −50.57 (6.35) % | UAS7 Change from baseline LS Mean (SE) [11]: −15.69 (1.88) | UAS7 % Change difference for rilzabrutinib vs. placebo LS Mean (95% CI) [12]: −24.12 % | UAS7 % Change from baseline LS Mean (SE) [12]: −52.77 (6.02) % | UAS7 Change from baseline LS Mean (SE) [12]: −16.24 (1.78) | UAS7 % Change difference for rilzabrutinib vs. placebo LS Mean (95% CI) [13]: −20.31 % | UAS7 % Change from baseline LS Mean (SE) [13]: −51.40 (6.43) % | UAS7 Change difference for rilzabrutinib vs. placebo LS Mean (95% CI) [13]: −5.68 (−10.80, −0.56) | UAS7 Change from baseline LS Mean (SE) [13]: −15.70 (1.90) | UAS7 % Change difference for rilzabrutinib vs. placebo LS Mean (95% CI) [14]: −25.28 % | UAS7 % Change from baseline LS Mean (SE) [14]: −52.11 (6.55) % | UAS7 Change difference for rilzabrutinib vs. placebo LS Mean (95% CI) [14]: −7.36 (−12.59, −2.14) | UAS7 Change from baseline LS Mean (SE) [14]: −16.22 (1.96) | UAS7 % Change difference for rilzabrutinib vs. placebo LS Mean (95% CI) [15]: −23.84 % | UAS7 % Change from baseline LS Mean (SE) [15]: −54.21 (6.69) % | UAS7 Change difference for rilzabrutinib vs. placebo LS Mean (95% CI) [15]: −6.91 (−12.19, −1.64) | UAS7 Change from baseline LS Mean (SE) [15]: −16.56 (1.98) | UAS7 % Change difference for rilzabrutinib vs. placebo LS Mean (95% CI) [16]: −24.83 % | UAS7 % Change from baseline LS Mean (SE) [16]: −53.14 (6.75) % | UAS7 Change difference for rilzabrutinib vs. placebo LS Mean (95% CI) [16]: −7.03 (−12.30, −1.76) | UAS7 Change from baseline LS Mean (SE) [16]: −16.34 (1.95) | UAS7 % Change difference for rilzabrutinib vs. placebo LS Mean (95% CI) [17]: −26.35 % | UAS7 % Change from baseline LS Mean (SE) [17]: −57.01 (7.01) % | UAS7 Change difference for rilzabrutinib vs. placebo LS Mean (95% CI) [17]: −7.50 (−13.02, −1.97) | UAS7 Change from baseline LS Mean (SE) [17]: −17.50 (2.06) | UAS7 % Change difference for rilzabrutinib vs. placebo LS Mean (95% CI) [18]: −8.73% | UAS7 % Change from baseline LS Mean (SE) [18]: −41.58 (5.68) % | UAS7 Change difference for rilzabrutinib vs. placebo LS Mean (95% CI) [18]: −1.60 | UAS7 Change from baseline LS Mean (SE) [18]: −12.04 (1.72) | UAS7 % Change difference for rilzabrutinib vs. placebo LS Mean (95% CI) [19]: −14.68% | UAS7 % Change from baseline LS Mean (SE) [19]: −41.23 (6.32) % | UAS7 Change difference for rilzabrutinib vs. placebo LS Mean (95% CI) [19]: −3.03 | UAS7 Change from baseline LS Mean (SE) [19]: −12.21 (1.87) | UAS7 % Change difference for rilzabrutinib vs. placebo LS Mean (95% CI) [20]: −18.46% | UAS7 % Change from baseline LS Mean (SE) [20]: −47.01 (5.97) % | UAS7 Change difference for rilzabrutinib vs. placebo LS Mean (95% CI) [20]: −4.51 | UAS7 Change from baseline LS Mean (SE) [20]: −13.94 (1.77)
